Results reported in US20140303228A1, “Biomarkers for Amyotrophic Lateral Sclerosis and Methods Using the Same” (METABOLON, INC., priority 2011, published 2014).

Assay: Metabolomic profiling of blood plasma samples, ALS vs. symptom mimic disease subjects (Tables 5, 9)
Parameters: species or system human
Details: blood plasma; ALS mean (172 subjects) vs symptom mimic disease mean (73 subjects); positive = increase in ALS; T-test

Compared with `CCCCC/C=C\C/C=C\CCCCCCCCCCCC(=O)O` [docosadienoate (22:2n6), docosadienoate], `CC(CO)C(=O)O` (centres unmarked) [3-hydroxyisobutyrate] is lower in “% Change in ALS” value: 15% for the first, −7% for the second.

Compared with `C[C@]12CC[C@H]3[C@@H](CC=C4C[C@@H](OS(=O)(=O)O)CC[C@@]43C)[C@@H]1CC[C@@H]2C(=O)COS(=O)(=O)O` [21-hydroxypregnenolone disulfate], pregnen-diol disulfate is higher in “% Change in ALS” value: 5% for the first, 27% for the second.

Going from `O=P(O)(O)OCC(O)CO` (centres unmarked) [glycerol 3-phosphate (G3P), glycerol 3-phosphate] to `CCCCCCCCCCCCCCCCCC(=O)OC[C@@H](O)COP(=O)([O-])OCC[N+](C)(C)C` [1-stearoylglycerophosphocholine], the “% Change in ALS” value rises from 6% to 18%.

Compared with `CC[C@H](C)[C@H](NC(=O)CC[C@H](N)C(=O)O)C(=O)O` [gamma-glutamylisoleucine], `C[C@H](CCC(=O)NCCS(=O)(=O)O)[C@H]1CC[C@H]2[C@@H]3CC[C@@H]4C[C@H](O)CC[C@]4(C)[C@H]3C[C@H](O)[C@]12C` [taurodeoxycholate] is lower in “% Change in ALS” value: 19% for the first, −25% for the second.

Going from `O=C(CO)[C@H](O)CO` [erythrulose] to `CCCCC/C=C\C/C=C\CCCCCCCCCC(=O)O` [dihomo-linoleate (20:2n6), dihomo-linoleate], the “% Change in ALS” value rises from 10% to 20%.

Compared with `Cn1cnc2[nH]c(=O)[nH]c(=O)c21` [7-methylxanthine], tartarate is higher in “% Change in ALS” value: −45% for the first, 25% for the second.

Going from `CCCCCCC(O)C(=O)O` (centres unmarked) [2-hydroxyoctanoate] to `CCCCCCCCCCCCCCCCCC(=O)O[C@H](CO)COP(=O)([O-])OCC[N+](C)(C)C` [2-stearoylglycerophosphocholine], the “% Change in ALS” value rises from −7% to 14%.

Going from `CC(C)(O)C(=O)O` [2-hydroxyisobutyrate] to `OC[C@@H](O)C(O)[C@H](O)CO` [arabitol], the “% Change in ALS” value falls from 8% to −7%.

First: HWESASXX (SEQ ID NO: 1): peptide biomarker measured in plasma, SEQ ID NO: 1
Second: CN1CCC[C@H]1C(=O)O [N-methyl proline]
The “% Change in ALS” value of the first is higher: 22% for the first, −8% for the second.

Going from `O=C(O)CNC(=O)c1ccccc1O` [2-hydroxyhippurate (salicylurate), 2-hydroxyhippurate] to `CC/C=C\C/C=C\C/C=C\C/C=C\CCCCC(=O)O` [stearidonate (18:4n3), stearidonate], the “% Change in ALS” value rises from −62% to 10%.

Going from `CNCC(=O)O` [sarcosine (N-Methylglycine), N-Methylglycine] to `COP(=O)(O)O` [methylphosphate], the “% Change in ALS” value falls from 30% to 6%.

First: CCCCCC(=O)O [caproate (6:0), caproate]
Second: Cc1ncc(CO)c(C(=O)O)c1O [pyridoxate]
The “% Change in ALS” value of the first is higher: 5% for the first, −62% for the second.

Compared with `Cc1ccc(C(C)C)c(OS(=O)(=O)O)c1` [thymol sulfate], `C=CC1=C(C)c2cc3[n-]c(cc4[n-]c(cc5nc(cc1n2)C(C)=C5C=C)c(C)c4CCC(=O)O)c(CCC(=O)O)c3C.[Fe+2]` [heme] is higher in “% Change in ALS” value: −17% for the first, −5% for the second.

Compared with `O=C[C@@H](O)[C@H](O)[C@H](O)CO` [arabinose], `C[C@H](CCC(=O)NCC(=O)O)[C@H]1CC[C@H]2[C@@H]3[C@@H](O)C[C@@H]4C[C@H](O)CC[C@]4(C)[C@H]3CC[C@]12C` [glycoursodeoxycholate] is lower in “% Change in ALS” value: 16% for the first, 8% for the second.

Going from `Cc1c(C)c2c(c(C)c1O)CC[C@@](C)(CCC[C@H](C)CCC[C@H](C)CCCC(C)C)O2` [alpha-tocopherol] to `CCCCCCCCCCCCCCCC(=O)OC(CO)COP(=O)([O-])OCC[N+](C)(C)C` (centres unmarked) [2-palmitoylglycerophosphocholine], the “% Change in ALS” value rises from 5% to 9%.

First: OC[C@H]1OC[C@H](O)[C@@H](O)[C@@H]1O [1,5-anhydroglucitol (1,5-AG), 1,5-anhydroglucitol]
Second: O=C(O)C(=O)O [oxalate (ethanedioate), ethanedioate]
The “% Change in ALS” value of the first is higher: 6% for the first, −6% for the second.

Going from `CCCCCCCC/C=C\CCCCCCCC(=O)OC[C@@H](O)COP(=O)([O-])OCC[N+](C)(C)C` [1-oleoylglycerophosphocholine] to “DSGEGDFXAEGGGVR (SEQ ID NO: 4): peptide biomarker measured in plasma, SEQ ID NO: 4”, the “% Change in ALS” value rises from 6% to 33%.

First: C/C=C(\C)C(=O)O[C@H](CC(=O)[O-])C[N+](C)(C)C [tiglyl carnitine]
Second: C=CC1=C(C)/C(=C/c2[nH]c(Cc3[nH]c(/C=C4\NC(=O)C(C)=C4C=C)c(C)c3CCC(=O)O)c(CCC(=O)O)c2C)NC1=O [bilirubin (E,Z or Z,E), bilirubin]
The “% Change in ALS” value of the first is lower: −7% for the first, 15% for the second.

Going from `O=C[C@H](O)[C@@H](O)[C@H](O)CO` [xylose] to `CCCCCCCC/C=C\CCCCCCCC(=O)O[C@H](CC(=O)[O-])C[N+](C)(C)C` [oleoylcarnitine], the “% Change in ALS” value rises from −17% to 8%.

Going from `C[N+](C)(C)C[C@@H](CC(=O)[O-])OC(=O)CCC(=O)O` [succinylcarnitine] to `CCCCC/C=C\C/C=C\C/C=C\C/C=C\CCCC(=O)OC[C@@H](O)COP(=O)([O-])OCC[N+](C)(C)C` [1-arachidonoylglycerophosphocholine], the “% Change in ALS” value rises from −8% to 8%.

Going from linolenate to `OC[C@@H](O)[C@H](O)CO` [threitol], the “% Change in ALS” value falls from 14% to −18%.

Compared with `CCCCCCCC/C=C\CCCCCCCC(=O)OC(CO)COP(=O)([O-])OCC[N+](C)(C)C` (centres unmarked) [2-oleoylglycerophosphocholine], `CC(C)CCC[C@@H](C)[C@H]1CC[C@H]2[C@@H]3CC=C4C[C@@H](O)CC[C@]4(C)[C@H]3CC[C@]12C` [cholesterol] is lower in “% Change in ALS” value: 9% for the first, 5% for the second.

Going from `Cn1c(=O)[nH]c2nc[nH]c2c1=O` [1-methylxanthine] to `CCCCCC(=O)OC(CC(=O)O)C[N+](C)(C)C.[Cl-]` (centres unmarked) [hexanoylcarnitine], the “% Change in ALS” value rises from −16% to 8%.

Compared with `Cc1c(O)cc2c(c1C)O[C@](C)(CCC[C@H](C)CCC[C@H](C)CCCC(C)C)CC2` [gamma-tocopherol], `Cn1c(=O)c2[nH]cnc2n(C)c1=O` [theophylline] is lower in “% Change in ALS” value: −17% for the first, −30% for the second.

Going from `O=C(O)C(O)Cc1c[nH]c2ccccc12` (centres unmarked) [indolelactate] to `OC[C@@H](O)[C@@H](O)CO` [erythritol], the “% Change in ALS” value falls from −16% to −207%.

Going from `OCC(O)CO` [glycerol] to `O=C(O)C1CCCCN1` (centres unmarked) [pipecolate], the “% Change in ALS” value falls from 9% to −13%.

First: docosapentaenoate [docosapentaenoate (n6 DPA; 22:5n6)]
Second: CC(O)CC(=O)O (centres unmarked) [3-hydroxybutyrate (BHBA), 3-hydroxybutyrate]
The “% Change in ALS” value of the first is lower: 11% for the first, 27% for the second.

1-palmitoylplasmenylethanolamine and `CCCCCCCCCCCCCCCCCCC(=O)O` [nonadecanoate (19:0), nonadecanoate] are the same in “% Change in ALS” value: 11% for the first, 11% for the second.

First: CC(=O)CC(=O)O [acetoacetate]
Second: CCCCCCCCCCCCCCCCC(=O)OC[C@@H](O)COP(=O)([O-])OCC[N+](C)(C)C [1-heptadecanoylglycerophosphocholine]
The “% Change in ALS” value of the first is lower: 9% for the first, 12% for the second.

First: O=C(O)CNC(=O)c1ccco1 [N-(2-furoyl)glycine]
Second: O=S(=O)(O)Oc1ccccc1O [catechol sulfate]
The “% Change in ALS” value of the first is higher: −22% for the first, −30% for the second.

Going from `CCCCCCCCCCCCC/C=C/[C@@H](O)[C@@H](N)COP(=O)(O)O` [erythro-sphingosine-1-phosphate] to `CCCCCCCCC=CCCCCCCCCC(=O)O` [10-nonadecenoate (19:1n9), 10-nonadecenoate], the “% Change in ALS” value rises from −6% to 19%.

First: C[C@H](CCC(=O)NCCS(=O)(=O)O)[C@H]1CC[C@H]2[C@@H]3CC[C@@H]4C[C@H](OS(=O)(=O)O)CC[C@]4(C)[C@H]3CC[C@]12C [taurolithocholate 3-sulfate]
Second: CN(C)CC(=O)O [dimethylglycine]
The “% Change in ALS” value of the first is higher: 12% for the first, 10% for the second.

Going from `OC[C@@H](O)[C@@H](O)[C@H](O)[C@H](O)CO` [mannitol] to `C[C@H](CCC(=O)NCC(=O)O)[C@H]1CC[C@H]2[C@@H]3[C@H](O)C[C@@H]4C[C@H](O)CC[C@]4(C)[C@H]3C[C@H](O)[C@]12C` [glycocholate], the “% Change in ALS” value rises from −136% to −30%.

First: CC(=O)NCCCC[C@H](N)C(=O)O [N6-acetyllysine]
Second: CC(C)CCC[C@@H](C)[C@H]1CC[C@H]2C3=CC[C@H]4C[C@@H](O)CC[C@]4(C)[C@H]3CC[C@]12C [lathosterol]
The “% Change in ALS” value of the first is lower: −8% for the first, 14% for the second.

Going from `O=C(O)[C@@H]1C[C@@H](O)CN1C(=O)[C@@H]1CCCN1` [pro-hydroxy-pro, prolylhydroxyproline] (H-Pro-[Hyp]-OH) to `CC(C)C(=O)O[C@H](CC(=O)[O-])C[N+](C)(C)C` [isobutyrylcarnitine], the “% Change in ALS” value falls from 11% to −14%.

Going from `O=C(O)CNC(=O)c1ccc(O)cc1` [4-hydroxyhippurate] to `CCCCCCCCCCCCCCCCC(=O)O` [margarate (17:0), margarate], the “% Change in ALS” value falls from 15% to 11%.

Compared with `CC(O)C(=O)O` (centres unmarked) [lactate], `CC(C)CC(=O)O[C@H](CC(=O)[O-])C[N+](C)(C)C` [isovalerylcarnitine] is lower in “% Change in ALS” value: −5% for the first, −8% for the second.

`CC(=O)NCC(=O)O` [N-acetylglycine] and `CCCCCCC=CCCCCCCCCC(=O)O` [10-heptadecenoate (17:1n7), 10-heptadecenoate] are the same in “% Change in ALS” value: 10% for the first, 10% for the second.

Compared with `CCCCCCCCCCCCCCC(=O)O` [pentadecanoate (15:0), pentadecanoate], `C[C@H](CCC(=O)NCC(=O)O)[C@H]1CC[C@H]2[C@@H]3CC[C@@H]4C[C@H](O)CC[C@]4(C)[C@H]3C[C@H](O)[C@]12C` [glycodeoxycholate] is lower in “% Change in ALS” value: 12% for the first, −22% for the second.

With `Oc1nc(O)c2nc(O)[nH]c2n1` [urate] the “% Change in ALS” value was −7.41% ^.

Same assay, conditions: plasma; ALS patients relative to symptom mimic disease patients; Random Forest and/or Wilcoxon (FDR < 0.15)

With `Cn1cnc2[nH]c(=O)[nH]c(=O)c21` [7-methylxanthine] the “Direction of change in ALS” value was “Lower”.
For `Oc1nc(O)c2nc(O)[nH]c2n1` [urate], the “Direction of change in ALS” value was “Lower”.
With `CC(C)CCC[C@@H](C)[C@H]1CC[C@H]2[C@@H]3CC=C4C[C@@H](O)CC[C@]4(C)[C@H]3CC[C@]12C` [cholesterol] the “Direction of change in ALS” value was “Higher”.
With `O=C(O)[C@@H]1C[C@@H](O)CN1C(=O)[C@@H]1CCCN1` [pro-hydroxy-pro, prolylhydroxyproline] (H-Pro-[Hyp]-OH) the “Direction of change in ALS” value was “Higher”.

Counter-ions that a name gives are not always drawn. Where a SMILES comes first, the peptide text is derived from it. [ ]: non-standard residue; d: D form. Hyp = O=C(O)[C@@H]1C[C@@H](O)CN1
